Data from patent publication US8399208B2, “Method and kit for the measurement of neutrophil cell activation” (Universite de Liege, priority 2004, dated 2013).
At least one compound was matched to its structure with a doubt left.

Tests used:
[1] = system: activated equine neutrophils; experiment: Chemiluminescence response (lucigenin) of PMA-activated equine neutrophils; assay type: cell-based, horse; settings: 10^-4, 10^-5 or 10^-6 M
Method: (§1) Neutrophils isolated from citrated blood of healthy horses were counted, suspended in phosphate buffer saline (PBS) at pH 7.4 and incubated 10 min at 37° C. with curcumin or THC at the final concentration of 10^−4, 10^−5 or 10^−6 M. After incubation and centrifugation (1000×g, 10 min), the neutrophils were resuspended in PBS and either activated 30 min with 8×10^−7 M phorbol myristate acetate (PMA), with a simultaneous monitoring of the chemiluminescent response in presence of lucigenin (5×10^-8 M), or activated in the same conditions followed by centrifugation and MPO measurement in the supernatant. MPO, marker of neutrophil degranulation, was measured by a specific ELISA assay raised against equine MPO. The effect of polyphenols on MPO activity was tested by SIEFED (“Specific Immunological Extraction Followed by Enzymatic Detection”) method that allows the study of drug interaction with the enzyme without reaction medium interferences.

equine MPO = experiment: MPO activity by SIEFED (specific immunological extraction followed by enzymatic detection); assay type: biochemical, horse
Method: FIG. 17 represents the inhibitory effect of curcumin on MPO activity. Concentration of MPO used: 9 ng/ml. The incubation time of curcumin with MPO before assay by SIEFED was 30 min. (The most concentrated curcumin solution was prepared in ethanol (175 mM) and dilutions of this concentrated solution were performed with PBS buffer).
As for the ELISA test, the primary antibody, that captures MPO, is rabbit IgG (3 μg/ml). Standard MPO or unknown sample is incubated 2 h at 37° C. After washing, the peroxidase activity of MPO is detected by adding 100 μl of a 10 μM H2O2 solution and 40 μM of Amplex® Red (10-acetyl-3,7-dihydroxyphenoxazine; Molecular Probes) in phosphate buffer (50 mM, pH 7.5). After incubation in the darkness (30 min, 37° C.), the fluorescence is read at 590 nm with a Fluoroskan Ascent apparatus (Labsystems). The volumes of the primary antibody and the sample put in the wells, are 200 μl. Controls (blank) and dilutions of the samples are established with dilution buffer.
as §1
The SIEFED was applied to study the effects of two natural polyphenols (curcumin and resveratrol) on MPO activity.

[2] = system: activated equine neutrophils; experiment: MPO release by PMA-activated neutrophils, MPO measured by ELISA in the supernatant; assay type: cell-based, horse; settings: 10^-4, 10^-5 or 10^-6 M
Method: FIG. 16 represents the inhibitory effect of curcumin on MPO release by neutrophils incubated in PBS buffer with or without stimulation with phorbol myristate acetate (PMA) (Curcumin (Curcu) was dissolved in ethanol. MPO was measured by ELISA in the supernatant of activated neutrophils).
The ELISA developed for MPO (1) measurement is further referred to as a MYELO-ELISA. Rabbit IgG, the primary antibody (2), is immobilized (coated) in excess (3 μg/ml) onto microtitration wells (3) (Cliniplate EB, Labsystem). Standard or test antigen (equine MPO (1)) is incubated overnight with the primary antibody (2) at 4° C. After washing (0.9% NaCl solution containing 0.1% tween 20), the immobilized antibody-antigen complex is incubated (2 h, 37° C.) with an excess (5 μg/ml) of guinea pig IgG, the secondary antibody (4). After washing, a third antibody (5) produced against guinea pig IgG is added. This third IgG (5) (goat IgG) is labelled with alkaline phosphatase (6) and recognizes the “sandwich” complex “primary antibody-MPO-secondary antibody”. After washing, phosphatase activity is detected by incubation (30 min, 37° C., in the darkness) with a paranitrophenyl phosphate solution (phosphatase substrate, Sigma). The reaction is stopped with NaOH and the absorbance (405 nm) is measured with a Multiscan Ascent apparatus (Labsystem) (7). […]

Q: What does the source list for `COc1cc(CCC(=O)CC(=O)CCc2ccc(O)c(OC)c2)ccc1O` [tetrahydrocurcumin]?
A: Effect on the chemiluminescence response of activated neutrophils (in words) [1]: dose dependent inhibitory effects; Effect on MPO activity (in words) (equine MPO; SIEFED, polyphenol incubated with MPO, then capture, washing, enzymatic detection): dose dependent inhibitory effects; Inhibitory percentage, MPO activity (SIEFED) (equine MPO; drug concentration 10^-4 M): 73.4%; Inhibitory percentage, MPO activity (SIEFED) (equine MPO; drug concentration 10^-5 M): 22%; Inhibitory percentage, MPO activity (SIEFED) (equine MPO; drug concentration 10^-6 M): 0%; Effect on the MPO release by activated neutrophils (in words) [2]: dose dependent inhibitory effects
